Measurements: PMC7413564, “Phase separation of Arabidopsis EMB1579 controls transcription, mRNA splicing, and development” (PLoS Biology, 2020)

T1: recombinant EMB1579-6×His protein (Arabidopsis thaliana) (UniProt F4IS91)
T1 sequence: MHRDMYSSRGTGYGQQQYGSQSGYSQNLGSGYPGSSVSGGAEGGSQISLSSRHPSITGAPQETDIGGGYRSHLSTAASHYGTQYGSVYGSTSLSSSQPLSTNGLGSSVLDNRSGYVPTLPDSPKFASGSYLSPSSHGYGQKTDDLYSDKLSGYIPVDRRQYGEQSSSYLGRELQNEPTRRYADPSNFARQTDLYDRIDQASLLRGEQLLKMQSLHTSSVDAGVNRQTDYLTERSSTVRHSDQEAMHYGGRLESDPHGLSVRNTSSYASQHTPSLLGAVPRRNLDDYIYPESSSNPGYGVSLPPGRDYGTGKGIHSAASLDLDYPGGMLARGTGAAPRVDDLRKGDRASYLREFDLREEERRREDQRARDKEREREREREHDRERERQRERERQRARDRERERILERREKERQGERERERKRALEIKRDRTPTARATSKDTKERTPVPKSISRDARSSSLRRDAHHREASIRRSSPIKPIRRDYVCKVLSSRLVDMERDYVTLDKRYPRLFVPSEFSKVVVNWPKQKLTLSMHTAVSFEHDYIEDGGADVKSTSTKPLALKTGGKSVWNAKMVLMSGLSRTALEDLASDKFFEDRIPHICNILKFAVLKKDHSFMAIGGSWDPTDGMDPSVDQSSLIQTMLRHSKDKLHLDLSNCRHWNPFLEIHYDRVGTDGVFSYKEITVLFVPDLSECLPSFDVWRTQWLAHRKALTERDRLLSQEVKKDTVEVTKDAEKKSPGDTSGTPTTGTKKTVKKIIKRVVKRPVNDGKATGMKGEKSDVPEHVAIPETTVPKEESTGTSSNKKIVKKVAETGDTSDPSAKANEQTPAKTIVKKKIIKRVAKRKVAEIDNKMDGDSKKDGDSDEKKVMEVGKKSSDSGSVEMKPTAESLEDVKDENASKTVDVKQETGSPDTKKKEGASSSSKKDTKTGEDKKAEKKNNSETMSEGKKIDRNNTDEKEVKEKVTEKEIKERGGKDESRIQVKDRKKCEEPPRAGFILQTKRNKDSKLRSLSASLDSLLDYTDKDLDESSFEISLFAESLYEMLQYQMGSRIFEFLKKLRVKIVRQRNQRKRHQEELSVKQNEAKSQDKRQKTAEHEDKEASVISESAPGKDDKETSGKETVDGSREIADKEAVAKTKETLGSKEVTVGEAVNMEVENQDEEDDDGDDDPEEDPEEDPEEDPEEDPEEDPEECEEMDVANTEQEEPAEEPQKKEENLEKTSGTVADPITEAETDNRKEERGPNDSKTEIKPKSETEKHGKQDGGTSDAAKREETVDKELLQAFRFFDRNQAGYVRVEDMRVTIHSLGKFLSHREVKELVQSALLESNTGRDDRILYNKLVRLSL


Target: T1, recombinant EMB1579-6×His protein (Arabidopsis thaliana)
Test: affinity purification with mass spectrometry; EMB1579-6×His bound to Ni-NTA beads, incubated 2 hours on ice with total extract of WT Arabidopsis roots dialysed into P buffer (25 mM Tris-HCl pH 8.0, 50 mM KCl, 2 mM DTT); bands cut from a silver-stained gel; Ni-NTA beads as control; only the target purified

Row | binding | Binder
1 | binds | MULTIPLE SUPPRESSOR OF IRA 4 (MSI4) (protein, UniProt O22607 1-507) MESDEAAAVSPQATTPSGGTGASGPKKRGRKPKTKEDSQTPSSQQQSDVKMKESGKKTQQSPSVDEKYSQWKGLVPILYDWLANHNLVWPSLSCRWGPQLEQATYKNRQRLYLSEQTDGSVPNTLVIANCEVVKPRVAAAEHISQFNEEARSPFVKKYKTIIHPGEVNRIRELPQNSKIVATHTDSPDVLIWDVETQPNRHAVLGAANSRPDLILTGHQDNAEFALAMCPTEPFVLSGGKDKSVVLWSIQDHITTIGTDSKSSGSIIKQTGEGTDKNESPTVGPRGVYHGHEDTVEDVAFSPTSAQEFCSVGDDSCLILWDARTGTNPVTKVEKAHDADLHCVDWNPHDDNLILTGSADNTVRLFDRRKLTANGVGSPIYKFEGHKAAVLCVQWSPDKSSVFGSSAEDGLLNIWDYDRVSKKSDRAAKSPAGLFFQHAGHRDKVVDFHWNASDPWTIVSVSDDCETTGGGGTLQIWRMSDLIYRPEEEVVAELEKFKSHVMTCASKP
2 | binds | DDB1A (protein, UniProt Q9M0V3 1-1088) MSSWNYVVTAHKPTSVTHSCVGNFTSPQELNLIVAKCTRIEIHLLTPQGLQPMLDVPIYGRIATLELFRPHGEAQDFLFIATERYKFCVLQWDPESSELITRAMGDVSDRIGRPTDNGQIGIIDPDCRLIGLHLYDGLFKVIPFDNKGQLKEAFNIRLEELQVLDIKFLFGCAKPTIAVLYQDNKDARHVKTYEVSLKDKDFVEGPWSQNSLDNGADLLIPVPPPLCGVLIIGEETIVYCSASAFKAIPIRPSITKAYGRVDVDGSRYLLGDHAGMIHLLVITHEKEKVTGLKIELLGETSIASTISYLDNAVVFVGSSYGDSQLVKLNLHPDAKGSYVEVLERYINLGPIVDFCVVDLERQGQGQVVTCSGAFKDGSLRVVRNGIGINEQASVELQGIKGMWSLKSSIDEAFDTFLVVSFISETRILAMNLEDELEETEIEGFLSQVQTLFCHDAVYNQLVQVTSNSVRLVSSTTRELRDEWHAPAGFTVNVATANASQVLLATGGGHLVYLEIGDGKLTEVQHALLEYEVSCLDINPIGDNPNYSQLAAVGMWTDISVRIFSLPELTLITKEQLGGEIIPRSVLLCAFEGISYLLCALGDGHLLNFQMDTTTGQLKDRKKVSLGTQPITLRTFSSKSATHVFAASDRPTVIYSSNKKLLYSNVNLKEVSHMCPFNSAAFPDSLAIAREGELTIGTIDDIQKLHIRTIPLGEHARRICHQEQTRTFGICSLGNQSNSEESEMHFVRLLDDQTFEFMSTYPLDSFEYGCSILSCSFTEDKNVYYCVGTAYVLPEENEPTKGRILVFIVEDGRLQLIAEKETKGAVYSLNAFNGKLLAAINQKIQLYKWMLRDDGTRELQSECGHHGHILALYVQTRGDFIVVGDLMKSISLLLYKHEEGAIEERARDYNANWMSAVEILDDDIYLGAENNFNLLTVKKNSEGATDEERGRLEVVGEYHLGEFVNRFRHGSLVMRLPDSEIGQIPTVIFGTVNGVIGVIASLPQEQYTFLEKLQSSLRKVIKGVGGLSHEQWRSFNNEKRTAEARNFLDGDLIESFLDLSRNKMEDISKSMNVQVEELCKRVEELTRLH

Results are given in words; binding and its absence hold for the method and conditions named. Binding seen in cells or lysates may run through a third protein. Here binding means that the protein was enriched with, or labelled near, the bait; the list need not be complete. Tags and fused reporters may be left off the sequences shown.
